Laboratory results as given in the supplement of paper PMC12819154, “High-throughput peptide-centric local stability assay extends protein–ligand identification to membrane proteins, tissues and bacteria” (Nature Structural & Molecular Biology, 2025).
This is one part of the list. Most entries show no effect beyond the scatter of the controls.

Chains of the proteins cited; added tags and fusions are not shown. Lines headed by an entry give the natural chain unless they say otherwise; changes in a name come on top.
UniProt P43490: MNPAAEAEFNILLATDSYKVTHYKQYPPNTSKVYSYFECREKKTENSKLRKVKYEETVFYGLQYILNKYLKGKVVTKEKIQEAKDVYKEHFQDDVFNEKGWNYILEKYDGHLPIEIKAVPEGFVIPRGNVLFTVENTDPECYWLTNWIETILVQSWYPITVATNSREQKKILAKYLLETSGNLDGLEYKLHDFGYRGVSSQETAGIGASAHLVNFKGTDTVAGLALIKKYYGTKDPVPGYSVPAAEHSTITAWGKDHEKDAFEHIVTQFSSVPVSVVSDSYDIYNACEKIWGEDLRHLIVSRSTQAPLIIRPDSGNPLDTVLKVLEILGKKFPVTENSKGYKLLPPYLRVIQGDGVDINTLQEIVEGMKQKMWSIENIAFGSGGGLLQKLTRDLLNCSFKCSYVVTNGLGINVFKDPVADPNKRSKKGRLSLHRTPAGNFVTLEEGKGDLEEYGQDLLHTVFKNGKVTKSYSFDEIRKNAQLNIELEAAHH
UniProt P40227, whole entry: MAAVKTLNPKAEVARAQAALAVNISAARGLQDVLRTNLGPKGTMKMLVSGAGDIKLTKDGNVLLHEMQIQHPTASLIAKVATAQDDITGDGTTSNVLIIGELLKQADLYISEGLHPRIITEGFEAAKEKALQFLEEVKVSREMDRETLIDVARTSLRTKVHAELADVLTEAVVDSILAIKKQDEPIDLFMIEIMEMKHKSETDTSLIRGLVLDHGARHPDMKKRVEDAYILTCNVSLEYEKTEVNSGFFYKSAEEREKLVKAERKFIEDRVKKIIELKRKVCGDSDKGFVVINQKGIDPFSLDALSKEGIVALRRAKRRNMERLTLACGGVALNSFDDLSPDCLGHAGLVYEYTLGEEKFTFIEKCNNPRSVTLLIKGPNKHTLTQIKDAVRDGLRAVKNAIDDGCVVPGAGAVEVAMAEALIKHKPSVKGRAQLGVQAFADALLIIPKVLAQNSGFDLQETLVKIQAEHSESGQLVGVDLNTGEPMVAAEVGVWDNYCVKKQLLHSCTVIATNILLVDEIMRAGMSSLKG
UniProt P40818: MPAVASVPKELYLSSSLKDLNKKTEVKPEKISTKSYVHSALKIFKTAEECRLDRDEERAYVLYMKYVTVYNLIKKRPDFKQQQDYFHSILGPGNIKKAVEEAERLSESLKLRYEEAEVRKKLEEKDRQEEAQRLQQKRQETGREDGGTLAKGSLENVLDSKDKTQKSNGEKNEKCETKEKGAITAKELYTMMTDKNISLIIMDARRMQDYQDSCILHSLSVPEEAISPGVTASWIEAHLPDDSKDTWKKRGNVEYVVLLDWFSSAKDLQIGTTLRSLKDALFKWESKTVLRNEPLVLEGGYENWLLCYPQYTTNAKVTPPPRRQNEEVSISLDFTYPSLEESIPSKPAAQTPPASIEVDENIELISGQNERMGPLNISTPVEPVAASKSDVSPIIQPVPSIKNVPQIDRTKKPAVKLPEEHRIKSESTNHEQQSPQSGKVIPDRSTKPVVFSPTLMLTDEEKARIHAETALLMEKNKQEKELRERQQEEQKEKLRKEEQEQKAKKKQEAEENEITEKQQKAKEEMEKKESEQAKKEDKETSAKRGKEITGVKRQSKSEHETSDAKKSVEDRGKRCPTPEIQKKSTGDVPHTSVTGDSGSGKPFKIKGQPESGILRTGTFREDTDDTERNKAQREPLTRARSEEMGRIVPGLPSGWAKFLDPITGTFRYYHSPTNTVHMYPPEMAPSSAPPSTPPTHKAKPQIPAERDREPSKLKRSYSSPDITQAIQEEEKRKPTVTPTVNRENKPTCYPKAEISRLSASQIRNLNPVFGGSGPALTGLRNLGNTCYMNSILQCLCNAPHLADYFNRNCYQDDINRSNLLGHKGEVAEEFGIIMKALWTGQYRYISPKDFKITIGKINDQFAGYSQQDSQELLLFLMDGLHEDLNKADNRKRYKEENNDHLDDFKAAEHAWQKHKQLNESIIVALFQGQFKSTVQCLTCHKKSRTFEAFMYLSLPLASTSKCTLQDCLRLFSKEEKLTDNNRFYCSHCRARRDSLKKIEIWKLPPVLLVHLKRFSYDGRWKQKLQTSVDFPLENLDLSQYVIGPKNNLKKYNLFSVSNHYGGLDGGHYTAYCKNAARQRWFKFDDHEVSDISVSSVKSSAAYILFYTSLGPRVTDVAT
UniProt P35610: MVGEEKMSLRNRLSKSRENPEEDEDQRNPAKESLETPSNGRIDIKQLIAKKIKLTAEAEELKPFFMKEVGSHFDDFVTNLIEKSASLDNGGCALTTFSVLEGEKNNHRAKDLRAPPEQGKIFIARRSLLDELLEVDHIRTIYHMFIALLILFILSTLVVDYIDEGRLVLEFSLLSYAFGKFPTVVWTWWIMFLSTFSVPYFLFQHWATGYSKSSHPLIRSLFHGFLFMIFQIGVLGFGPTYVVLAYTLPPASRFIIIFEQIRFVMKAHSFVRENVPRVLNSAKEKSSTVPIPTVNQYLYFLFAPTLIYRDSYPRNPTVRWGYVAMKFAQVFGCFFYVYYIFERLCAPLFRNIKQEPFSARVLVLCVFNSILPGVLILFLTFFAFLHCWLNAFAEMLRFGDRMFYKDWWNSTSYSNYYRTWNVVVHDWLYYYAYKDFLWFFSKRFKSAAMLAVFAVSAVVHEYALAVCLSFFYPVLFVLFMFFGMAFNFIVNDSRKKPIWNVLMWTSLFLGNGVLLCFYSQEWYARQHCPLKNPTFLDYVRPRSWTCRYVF
UniProt P35613: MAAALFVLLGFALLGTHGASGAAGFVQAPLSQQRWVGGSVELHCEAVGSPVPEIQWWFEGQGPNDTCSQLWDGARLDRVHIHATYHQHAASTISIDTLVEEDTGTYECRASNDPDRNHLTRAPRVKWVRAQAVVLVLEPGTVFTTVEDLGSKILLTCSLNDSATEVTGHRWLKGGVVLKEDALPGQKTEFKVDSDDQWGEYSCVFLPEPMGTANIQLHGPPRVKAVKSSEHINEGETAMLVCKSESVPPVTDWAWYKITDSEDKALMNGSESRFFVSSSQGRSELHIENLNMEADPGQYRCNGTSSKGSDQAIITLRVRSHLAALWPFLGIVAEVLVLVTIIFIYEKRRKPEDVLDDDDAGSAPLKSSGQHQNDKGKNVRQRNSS
UniProt P28702: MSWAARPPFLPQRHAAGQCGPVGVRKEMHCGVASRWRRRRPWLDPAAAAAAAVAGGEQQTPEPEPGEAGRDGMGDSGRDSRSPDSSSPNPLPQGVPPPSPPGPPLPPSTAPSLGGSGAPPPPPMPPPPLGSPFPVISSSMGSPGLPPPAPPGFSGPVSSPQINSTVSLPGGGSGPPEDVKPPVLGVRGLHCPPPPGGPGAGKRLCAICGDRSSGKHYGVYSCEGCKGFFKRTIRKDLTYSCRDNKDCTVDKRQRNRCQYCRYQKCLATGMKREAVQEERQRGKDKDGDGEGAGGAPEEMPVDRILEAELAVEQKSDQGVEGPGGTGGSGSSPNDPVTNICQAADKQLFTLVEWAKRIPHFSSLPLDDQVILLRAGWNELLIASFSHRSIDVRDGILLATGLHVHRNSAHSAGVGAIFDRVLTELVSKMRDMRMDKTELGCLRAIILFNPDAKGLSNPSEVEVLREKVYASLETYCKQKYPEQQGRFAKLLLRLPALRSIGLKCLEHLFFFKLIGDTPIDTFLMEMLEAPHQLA
UniProt P35236: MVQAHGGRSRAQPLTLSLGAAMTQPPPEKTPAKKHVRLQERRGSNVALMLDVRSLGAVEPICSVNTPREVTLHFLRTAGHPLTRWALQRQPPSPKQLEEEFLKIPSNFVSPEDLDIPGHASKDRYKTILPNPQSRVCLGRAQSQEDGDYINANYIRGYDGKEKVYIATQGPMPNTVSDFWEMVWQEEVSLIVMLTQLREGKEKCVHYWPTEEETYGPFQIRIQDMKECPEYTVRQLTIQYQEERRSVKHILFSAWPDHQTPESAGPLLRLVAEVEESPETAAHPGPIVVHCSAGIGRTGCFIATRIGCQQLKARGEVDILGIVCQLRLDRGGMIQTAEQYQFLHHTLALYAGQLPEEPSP
UniProt P38936, whole entry: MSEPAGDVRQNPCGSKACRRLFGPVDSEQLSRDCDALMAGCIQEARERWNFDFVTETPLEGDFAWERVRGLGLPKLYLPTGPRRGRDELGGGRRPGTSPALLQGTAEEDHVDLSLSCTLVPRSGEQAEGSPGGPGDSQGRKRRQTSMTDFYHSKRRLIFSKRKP
UniProt P38606, whole entry: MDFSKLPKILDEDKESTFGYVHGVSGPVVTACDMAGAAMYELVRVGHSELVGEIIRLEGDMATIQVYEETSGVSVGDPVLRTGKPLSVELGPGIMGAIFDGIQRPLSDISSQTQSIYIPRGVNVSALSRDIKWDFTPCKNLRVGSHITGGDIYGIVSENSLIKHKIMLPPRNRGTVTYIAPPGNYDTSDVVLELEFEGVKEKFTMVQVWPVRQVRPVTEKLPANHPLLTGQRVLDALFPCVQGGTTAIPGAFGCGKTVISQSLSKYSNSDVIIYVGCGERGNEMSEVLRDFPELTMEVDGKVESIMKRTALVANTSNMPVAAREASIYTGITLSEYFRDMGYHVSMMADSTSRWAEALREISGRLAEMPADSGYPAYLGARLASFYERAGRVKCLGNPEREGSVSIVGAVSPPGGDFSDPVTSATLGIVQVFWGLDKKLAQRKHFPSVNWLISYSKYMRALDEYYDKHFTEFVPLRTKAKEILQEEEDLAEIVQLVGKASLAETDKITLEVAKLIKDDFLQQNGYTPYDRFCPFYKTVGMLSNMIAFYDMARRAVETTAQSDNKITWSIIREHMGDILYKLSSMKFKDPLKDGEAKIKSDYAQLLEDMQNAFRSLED

Compound: Cc1nc(Nc2ncc(C(=O)Nc3c(C)cccc3Cl)s2)cc(N2CCN(CCO)CC2)n1 [dasatinib]
Assay: log2 fold change of tryptic peptide abundance, ligand vs vehicle (limited proteolysis) (log2 ratio); higher = more trypsin-susceptible (destabilized)
Settings: ligand concentration: 5 uM; sample: K562 cleared lysate

Target	log2 fold change
NAMPT (peptide sequence: GVSSQETAGIGASAHLVNFK, peptide start residue: 197) (UniProt P43490)	0.317
CCT6A (peptide sequence: ETLIDVAR, peptide start residue: 146) (UniProt P40227)	-0.122
USP8 (peptide sequence: SYSSPDITQAIQEEEKR, peptide start residue: 716) (UniProt P40818)	0.412
SOAT1 (peptide sequence: LTAEAEELKPFFMK, peptide start residue: 54) (UniProt P35610)	0.328
BSG (peptide sequence: RKPEDVLDDDDAGSAPLK, peptide start residue: 349) (UniProt P35613)	-0.269
RXRB (peptide sequence: DKDGDGEGAGGAPEEMPVDR, peptide start residue: 284) (UniProt P28702)	0.511
PTPN7 (peptide sequence: GSNVALMLDVR, peptide start residue: 43) (UniProt P35236)	0.0983
UniProt P38936 (peptide sequence: LYLPTGPR, peptide start residue: 76)	-0.422
POLR2B (peptide sequence: IFVNGCWVGIHKDPEQLMNTLR, peptide start residue: 567) (UniProt P30876)	-0.287
ATP6V1A (peptide sequence: ITWSIIR, peptide start residue: 565) (UniProt P38606)	-0.182

Part of the list above, as comma-separated lines.
Target,log2 fold change
"UniProt P38936 (peptide sequence: LYLPTGPR, peptide start residue: 76)",-0.422
"POLR2B (peptide sequence: IFVNGCWVGIHKDPEQLMNTLR, peptide start residue: 567) (UniProt P30876)",-0.287
